Experiment: general procedure: Fmoc solid-phase peptide synthesis; H-Rink Amide
Settings: whole synthesis

Row | Substance | isolated yield [%]
1 | DOTA-D-Dap[(3-SiFA)Bz]-D-Glu-L-Ala-L-Tyr-Gly-L-Trp-L-Nle-L-Asp-L-1-NaI | 9
2 | DOTA-D-Dap[(4-SiFA)Bz]-D-Glu-L-Ala-L-Tyr-Gly-L-Trp-L-Nle-L-Asp-L-1-NaI | 6
3 | DOTA-D-Dap[(5-SiFA)Ip]-D-glu-L-Ala-L-Tyr-Gly-L-Trp-L-Nle-L-Asp-L-1-NaI | 5
